Measurements from PMC5132261.
These are yes or no findings as the source states them, for the method shown. Binding seen in cells or lysates may run through a third protein. Here binding means that the protein was enriched with, or labelled near, the bait; the list need not be complete.

Sequences of proteins named here, by UniProt entry; tags and fusion partners are left off.
UniProt Q9JKS6: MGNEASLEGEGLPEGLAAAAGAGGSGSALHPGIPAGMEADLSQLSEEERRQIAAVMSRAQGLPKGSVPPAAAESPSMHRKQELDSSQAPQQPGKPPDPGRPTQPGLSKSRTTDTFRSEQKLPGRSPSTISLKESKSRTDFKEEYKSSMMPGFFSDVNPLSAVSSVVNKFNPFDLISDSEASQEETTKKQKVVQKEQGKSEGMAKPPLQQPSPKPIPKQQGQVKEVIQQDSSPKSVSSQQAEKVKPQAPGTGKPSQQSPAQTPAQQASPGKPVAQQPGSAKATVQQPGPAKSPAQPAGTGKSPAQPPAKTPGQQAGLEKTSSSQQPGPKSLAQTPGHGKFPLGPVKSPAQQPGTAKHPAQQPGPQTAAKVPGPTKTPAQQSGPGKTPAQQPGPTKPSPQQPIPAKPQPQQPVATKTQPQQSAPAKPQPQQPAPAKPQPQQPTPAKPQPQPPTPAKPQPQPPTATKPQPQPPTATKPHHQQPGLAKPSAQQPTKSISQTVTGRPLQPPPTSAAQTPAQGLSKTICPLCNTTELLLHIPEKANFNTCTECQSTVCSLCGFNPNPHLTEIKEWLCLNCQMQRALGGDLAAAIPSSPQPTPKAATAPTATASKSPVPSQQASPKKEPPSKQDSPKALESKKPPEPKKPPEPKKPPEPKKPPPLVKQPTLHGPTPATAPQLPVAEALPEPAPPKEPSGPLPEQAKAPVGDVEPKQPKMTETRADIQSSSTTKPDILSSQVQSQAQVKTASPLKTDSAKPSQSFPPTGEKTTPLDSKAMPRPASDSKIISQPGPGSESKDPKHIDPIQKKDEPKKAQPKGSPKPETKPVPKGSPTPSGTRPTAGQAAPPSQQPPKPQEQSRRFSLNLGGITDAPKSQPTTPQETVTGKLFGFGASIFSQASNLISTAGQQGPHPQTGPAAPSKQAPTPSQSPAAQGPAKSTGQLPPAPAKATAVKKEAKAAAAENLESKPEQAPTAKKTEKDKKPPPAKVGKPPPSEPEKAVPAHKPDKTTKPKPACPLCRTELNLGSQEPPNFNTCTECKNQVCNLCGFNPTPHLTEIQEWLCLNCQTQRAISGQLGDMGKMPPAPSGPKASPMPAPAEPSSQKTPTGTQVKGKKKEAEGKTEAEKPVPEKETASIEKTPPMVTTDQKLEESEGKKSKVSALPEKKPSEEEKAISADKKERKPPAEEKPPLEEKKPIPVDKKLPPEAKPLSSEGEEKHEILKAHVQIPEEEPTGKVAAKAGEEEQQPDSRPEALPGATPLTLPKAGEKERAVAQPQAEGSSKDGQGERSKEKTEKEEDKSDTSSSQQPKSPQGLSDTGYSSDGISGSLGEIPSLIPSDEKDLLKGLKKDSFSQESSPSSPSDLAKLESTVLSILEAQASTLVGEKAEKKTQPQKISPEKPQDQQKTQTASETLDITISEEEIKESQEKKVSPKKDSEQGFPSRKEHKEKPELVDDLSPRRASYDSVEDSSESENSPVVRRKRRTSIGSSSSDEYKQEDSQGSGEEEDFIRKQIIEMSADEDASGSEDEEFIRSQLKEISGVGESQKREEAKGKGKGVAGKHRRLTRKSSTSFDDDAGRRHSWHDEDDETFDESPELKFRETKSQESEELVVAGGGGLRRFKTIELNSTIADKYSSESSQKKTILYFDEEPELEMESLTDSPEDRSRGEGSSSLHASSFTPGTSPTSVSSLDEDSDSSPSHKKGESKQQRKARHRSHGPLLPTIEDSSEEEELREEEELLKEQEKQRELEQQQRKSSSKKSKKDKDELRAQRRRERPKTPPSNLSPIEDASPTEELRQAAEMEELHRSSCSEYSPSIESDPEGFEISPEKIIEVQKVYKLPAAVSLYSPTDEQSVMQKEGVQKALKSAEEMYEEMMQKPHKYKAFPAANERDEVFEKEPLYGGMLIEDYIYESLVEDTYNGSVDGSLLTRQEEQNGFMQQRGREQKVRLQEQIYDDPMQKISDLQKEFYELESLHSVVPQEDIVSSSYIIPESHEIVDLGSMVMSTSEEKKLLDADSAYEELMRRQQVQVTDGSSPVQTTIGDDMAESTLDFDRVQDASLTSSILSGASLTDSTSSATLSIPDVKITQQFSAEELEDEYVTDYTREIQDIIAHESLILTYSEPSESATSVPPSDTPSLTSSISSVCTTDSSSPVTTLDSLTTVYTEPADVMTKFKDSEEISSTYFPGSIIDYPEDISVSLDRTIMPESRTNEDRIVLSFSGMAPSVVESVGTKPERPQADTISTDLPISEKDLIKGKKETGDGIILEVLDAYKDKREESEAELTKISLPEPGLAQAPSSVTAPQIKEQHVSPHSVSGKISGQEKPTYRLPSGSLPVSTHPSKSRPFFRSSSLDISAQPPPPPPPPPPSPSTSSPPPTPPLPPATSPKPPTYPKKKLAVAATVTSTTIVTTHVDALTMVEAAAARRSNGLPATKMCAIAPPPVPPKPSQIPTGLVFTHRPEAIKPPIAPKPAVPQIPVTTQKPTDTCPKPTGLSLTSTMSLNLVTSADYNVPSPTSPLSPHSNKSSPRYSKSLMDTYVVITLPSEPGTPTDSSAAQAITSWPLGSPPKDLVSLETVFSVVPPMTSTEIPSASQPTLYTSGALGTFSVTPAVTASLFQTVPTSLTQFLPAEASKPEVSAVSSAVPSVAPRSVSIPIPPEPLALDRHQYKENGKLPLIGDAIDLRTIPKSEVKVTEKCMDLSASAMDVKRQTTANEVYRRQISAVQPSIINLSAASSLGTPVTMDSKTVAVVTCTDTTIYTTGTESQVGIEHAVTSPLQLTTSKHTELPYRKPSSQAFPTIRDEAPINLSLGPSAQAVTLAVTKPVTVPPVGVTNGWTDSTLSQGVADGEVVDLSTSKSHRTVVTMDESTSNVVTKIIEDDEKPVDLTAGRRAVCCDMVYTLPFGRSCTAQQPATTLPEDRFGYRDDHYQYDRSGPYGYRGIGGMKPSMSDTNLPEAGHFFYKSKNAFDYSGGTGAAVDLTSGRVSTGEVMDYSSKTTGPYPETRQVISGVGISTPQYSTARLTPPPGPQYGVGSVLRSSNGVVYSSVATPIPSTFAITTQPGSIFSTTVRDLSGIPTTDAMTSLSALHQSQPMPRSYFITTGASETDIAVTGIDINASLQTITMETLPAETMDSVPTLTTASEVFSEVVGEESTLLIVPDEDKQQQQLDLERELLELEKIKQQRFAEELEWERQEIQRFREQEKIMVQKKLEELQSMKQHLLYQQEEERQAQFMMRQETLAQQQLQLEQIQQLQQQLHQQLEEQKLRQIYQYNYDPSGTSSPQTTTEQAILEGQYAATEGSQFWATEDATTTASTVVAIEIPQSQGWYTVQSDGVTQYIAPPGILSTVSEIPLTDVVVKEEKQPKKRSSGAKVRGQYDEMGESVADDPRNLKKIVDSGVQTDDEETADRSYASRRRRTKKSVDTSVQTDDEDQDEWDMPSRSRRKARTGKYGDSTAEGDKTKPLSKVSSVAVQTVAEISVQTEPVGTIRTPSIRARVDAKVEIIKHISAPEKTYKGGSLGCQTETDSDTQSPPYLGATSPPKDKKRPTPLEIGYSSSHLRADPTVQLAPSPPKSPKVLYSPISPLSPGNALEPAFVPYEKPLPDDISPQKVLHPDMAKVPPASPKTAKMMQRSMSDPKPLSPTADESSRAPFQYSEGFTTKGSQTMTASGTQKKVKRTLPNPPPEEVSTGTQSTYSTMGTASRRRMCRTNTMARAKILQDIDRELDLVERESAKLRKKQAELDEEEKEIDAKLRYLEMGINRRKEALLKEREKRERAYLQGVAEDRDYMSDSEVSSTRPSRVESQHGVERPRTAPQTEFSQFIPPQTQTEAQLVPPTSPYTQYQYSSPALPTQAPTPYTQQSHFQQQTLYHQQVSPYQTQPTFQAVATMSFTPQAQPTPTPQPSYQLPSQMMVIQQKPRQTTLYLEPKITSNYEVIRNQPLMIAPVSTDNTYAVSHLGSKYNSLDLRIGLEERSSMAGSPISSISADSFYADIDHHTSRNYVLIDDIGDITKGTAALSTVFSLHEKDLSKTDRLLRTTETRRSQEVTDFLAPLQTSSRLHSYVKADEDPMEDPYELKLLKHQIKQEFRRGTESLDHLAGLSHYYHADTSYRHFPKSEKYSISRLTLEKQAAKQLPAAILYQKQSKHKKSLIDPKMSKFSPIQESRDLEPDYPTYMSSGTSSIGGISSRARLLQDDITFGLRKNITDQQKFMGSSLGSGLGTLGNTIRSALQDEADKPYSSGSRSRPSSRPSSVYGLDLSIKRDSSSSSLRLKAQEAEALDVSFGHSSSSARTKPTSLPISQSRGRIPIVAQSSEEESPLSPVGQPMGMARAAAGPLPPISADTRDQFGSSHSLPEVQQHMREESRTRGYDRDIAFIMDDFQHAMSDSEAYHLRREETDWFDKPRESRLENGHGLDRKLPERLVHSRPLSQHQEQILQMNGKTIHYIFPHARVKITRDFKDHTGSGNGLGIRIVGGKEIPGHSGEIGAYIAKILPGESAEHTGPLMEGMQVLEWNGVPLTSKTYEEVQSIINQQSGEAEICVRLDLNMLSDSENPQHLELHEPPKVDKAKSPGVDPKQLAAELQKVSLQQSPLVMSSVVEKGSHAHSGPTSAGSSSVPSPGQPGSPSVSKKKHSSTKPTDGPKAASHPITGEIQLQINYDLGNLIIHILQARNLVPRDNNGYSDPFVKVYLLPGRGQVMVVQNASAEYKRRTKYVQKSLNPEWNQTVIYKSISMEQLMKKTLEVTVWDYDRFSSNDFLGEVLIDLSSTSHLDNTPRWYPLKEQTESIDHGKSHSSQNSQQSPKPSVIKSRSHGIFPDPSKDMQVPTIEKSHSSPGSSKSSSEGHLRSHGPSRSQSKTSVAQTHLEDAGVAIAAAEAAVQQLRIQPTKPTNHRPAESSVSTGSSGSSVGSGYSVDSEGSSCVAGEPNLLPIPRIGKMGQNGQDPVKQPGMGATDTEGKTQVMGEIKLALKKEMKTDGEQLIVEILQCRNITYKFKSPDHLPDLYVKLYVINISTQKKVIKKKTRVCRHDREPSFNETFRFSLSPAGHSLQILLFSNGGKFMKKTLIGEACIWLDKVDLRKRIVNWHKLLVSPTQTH

Biological target: Piccolo (rat (endogenous in brain)) (UniProt Q9JKS6)
Test: affinity purification with mass spectrometry; eluates of the anti-Piccolo IP and of the control IgG IP (two IP experiments) from solubilised light membrane fraction of immature rat brain, analysed by MudPIT; positives: present in the anti-Piccolo IP, absent from IgG

binding: binds
Substance: Bassoon (from UniProt O88778 1-3938)
